From PMC12529657
No constants are given. Whether binding was seen depends on the method and setting. Binding seen in cells or lysates may run through a third protein. Some entries that bind do so weakly or less than the wild type. For some assays here: Sequences can lack the tags named with a protein.

The chains behind the UniProt entries cited, without tags or fusion partners.
UniProt F5HFD2: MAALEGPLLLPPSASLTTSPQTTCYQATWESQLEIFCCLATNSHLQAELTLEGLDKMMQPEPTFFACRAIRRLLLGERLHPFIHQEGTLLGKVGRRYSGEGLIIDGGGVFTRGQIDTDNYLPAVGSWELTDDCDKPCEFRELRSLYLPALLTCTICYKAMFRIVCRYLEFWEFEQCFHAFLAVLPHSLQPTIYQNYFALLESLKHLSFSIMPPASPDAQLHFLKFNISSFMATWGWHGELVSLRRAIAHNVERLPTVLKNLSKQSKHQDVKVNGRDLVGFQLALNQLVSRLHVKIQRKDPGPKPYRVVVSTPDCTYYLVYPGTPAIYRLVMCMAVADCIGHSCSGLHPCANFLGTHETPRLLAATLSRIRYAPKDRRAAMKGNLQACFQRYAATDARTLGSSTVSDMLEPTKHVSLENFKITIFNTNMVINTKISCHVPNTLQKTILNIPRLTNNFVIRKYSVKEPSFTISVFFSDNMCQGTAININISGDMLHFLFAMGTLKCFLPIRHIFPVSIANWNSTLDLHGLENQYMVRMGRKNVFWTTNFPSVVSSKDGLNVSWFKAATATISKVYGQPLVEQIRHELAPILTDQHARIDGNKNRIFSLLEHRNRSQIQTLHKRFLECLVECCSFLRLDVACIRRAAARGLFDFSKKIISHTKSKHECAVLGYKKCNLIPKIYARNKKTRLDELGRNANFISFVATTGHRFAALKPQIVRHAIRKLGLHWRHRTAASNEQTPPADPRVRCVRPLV

B1: ORF34 (transfected) (protein, UniProt Q2HR98 1-327)
chain: MFALSSLVSEGDPEVTSRYVKGVQLALDLSENTPGQFKLIETPLNSFLLVSNVMPEVQPICSGLPALRPDFSNLHLPRLEKLQRVLGQGFGAAGEEIALDPSHVETHEKGQVFYNHYATEEWTWALTLNKDALLREAVDGLCDPGTWKGLLPDDPLPLLWLLFNGPASFCRADCCLYKQHCGYPGPVLLPGHMYAPKRDLLSFVNHALKYTKFLYGDFSGTWAAACRPPFATSRIQRVVSQMKIIDASDTYISHTCLLCHIYQQNSIIAGQGTHVGGILLLSGKGTQYITGNVQTQRCPTTGDYLIIPSYDIPAIITMIKENGLNQL
B2: FLAG-ORF34 (KSHV BAC16 HA-ORF24/FLAG-ORF34) (protein, UniProt Q2HR98 1-327)
chain: B1 chain

Tests used:
[1] = target: ORF24-2xStrep (wild type) (Kaposi's sarcoma-associated herpesvirus (KSHV)) (UniProt F5HFD2); experiment: co-IP
[2] = target: HA-ORF24 (wild type, KSHV BAC16 HA-ORF24/FLAG-ORF34) (Kaposi's sarcoma-associated herpesvirus (KSHV)) (UniProt F5HFD2); experiment: co-IP; anti-HA magnetic beads on RIPA lysates (1-2 mg) of iSLK cells carrying HA-ORF24/FLAG-ORF34 KSHV BAC16 (wild type or ORF24 mutant), 48 h post reactivation; overnight in 150 mM NaCl, 50 mM Tris pH 7.4; washes with 0.05% NP-40; western blot for Rpb1 and FLAG-ORF34

Binder	binding [1]	binding [2]
B1	binds	
B2		binds
